According to patent US20120316105A1 (priority 2011, published 2012):

Assay: general procedure: Fmoc solid-phase peptide synthesis; 2-chlorotrityl chloride (CTC); DIC/HOBt
Settings: late stage modification step, sulfate salt

In the case of “H-Dab(Boc)-Thr(tBu)-Dap(Boc)-cyclo[Dab-Dab(Boc)-DPhe-Leu-Dab(Boc)-Dab(Boc)-Thr(tBu)]”, the step yield (TFA salt) is reported as 94% and the “crude HPLC purity” value (UV220, TFA salt) is reported as 78.7%.
